# Source: PubChem BioAssay AID624297 (National Center for Advancing Translational Sciences (NCATS), 2012)
# Hit rate of the full screen: of about 340,000 compounds, about 6,200 (1.8%) were called active. The inconclusive results got no clear call from the source; some entries with a clear call stand among them for comparison. Calls follow the shape of the dose curve; as a rule, active = well fitted activation curve with a large enough effect; inconclusive = small, poorly fitted or top-dose-only effect; inactive = no such curve, though single readings can be large or run the other way. A potency beside an inconclusive call is a rough fit, not a confirmed value.
# Experiment: A quantitative high throughput screen for small molecules that induce DNA re-replication in SW480 colon adenocarcinoma cells. Also: nearly all actives have a fitted effect of over 55% in size. As to re-replication activation: % of control where 0% means no effect.
# Conditions: Hoechst DNA content imaging, 48 h; re-replication activation: at 46.1 µM (top of the series) unless noted
# Outline: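 Treated cells incubate 48 hr (37 C, 5% CO2), are stained 40 min with Hoechst, and nuclear fluorescence is enumerated; a rise in nuclei with high DNA signal marks re-replication.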
# Potency is read from the fitted curve at half-maximal effect.
Structure (SMILES),Potency,re-replication activation
CC(Nc1cccc2ccccc12)C(=O)N/N=C/c1ccccn1 (configuration not stated),"inconclusive: 25.9 µM [activator, single point]",–
CCc1ccc(NC(=O)NCc2cccnc2)cc1,"inconclusive: 23.1 µM [activator, single point]",–
CC1S/C(=N/N=C/c2ccco2)N(Cc2ccc(F)cc2)C1=O (configuration not stated),"inconclusive: 1.46 µM [activator, partial curve, poor fit]",–
COc1ccc(NC(=O)C(=O)N2N=C(C(C)C)CC2(O)C(F)(F)F)cc1 (configuration not stated),"inconclusive: 29.1 µM [activator, single point]",–
CCOC(=O)c1c(NS(=O)(=O)c2ccc(Br)cc2)sc2c1CCC2,inactive,–
C/C(CC(=O)Nc1ccc(F)cc1)=N\NC(=O)Cc1csc(N)n1,"inconclusive: 29.1 µM [activator, partial curve, poor fit]",–
Cc1cc(=O)[nH]c(-c2ccc(Cl)cc2)n1,"inconclusive: 11.6 µM [activator, single point]",–
COc1ccc(CNC(=O)c2ccc(NC(=O)C3=CSCCO3)cc2)cc1,"inconclusive: 2.31 µM [activator, full curve, poor fit]",–
Cc1nc(-c2ccc(Cl)cc2)oc1COC(C)(C)C(=O)O,inactive,–
Cc1noc(C)c1S(=O)(=O)Nc1ccc2c(c1)C(=O)N([C@H](C)CO)C[C@H](C)[C@@H](CN(C)C(=O)Nc1ccc3c(c1)OCO3)O2,"inconclusive: 0.164 µM [activator, full curve, poor fit]",–
Cc1ccc(C(NC(=O)NCCCN2CCOCC2)=C(Cl)Cl)cc1F,"inconclusive: 20 µM [activator, single point]",–
Cc1cccc(C)c1OCC(=O)N/N=C/c1cccnc1,inactive,–
CCOc1cc2c(cc1O)CCC1C2CCC2(C)C(O)CCC12 (configuration not stated),"inconclusive: 1.16 µM [activator, partial curve, poor fit]",–
CCOC(=O)N1CCC(N(CCN(C)C)C(=S)Nc2cc(C)cc(C)c2)CC1,"inconclusive: 20.6 µM [activator, partial curve, poor fit]",–
O=C(NCc1ccccc1)c1cccc2c1C(=O)c1ccc(/C=C/c3ccccc3)cc1S2(=O)=O,active: 23.1 µM,–
CC(C)(C)NS(=O)(=O)c1ccc(CCC(=O)Nc2ccc3c(c2)OCO3)cc1,inactive,–
Oc1ccccc1Nc1nc(NCC2CCCO2)c2ccccc2n1 (configuration not stated),inactive,–
O=C(CN1CCN(Cc2cccc(C(F)(F)F)c2)CC1)NCC(=O)Nc1ccc(F)c(F)c1F,inactive,–
CCOC(=O)c1nc(Nc2ccc(N3CCC(C)CC3)cc2)c2ccccc2n1,inactive,–
COc1ccc(OC)c(-c2cc(C(=O)Nc3ccc(F)cc3F)no2)c1,"inconclusive: 5.8 µM [activator, partial curve, poor fit]",–
COC(=O)C1=C(C)N(Cc2ccccc2)C(=NCc2ccccc2)N[C@H]1c1cccc(C(F)(F)F)c1,"inconclusive: 16.4 µM [activator, partial curve, poor fit]",–

# Grouped by structure, the compounds so far with a halogen
Structure (SMILES),Potency,re-replication activation
CC1S/C(=N/N=C/c2ccco2)N(Cc2ccc(F)cc2)C1=O (configuration not stated),"inconclusive: 1.46 µM [activator, partial curve, poor fit]",–
COc1ccc(NC(=O)C(=O)N2N=C(C(C)C)CC2(O)C(F)(F)F)cc1 (configuration not stated),"inconclusive: 29.1 µM [activator, single point]",–
CCOC(=O)c1c(NS(=O)(=O)c2ccc(Br)cc2)sc2c1CCC2,inactive,–
C/C(CC(=O)Nc1ccc(F)cc1)=N\NC(=O)Cc1csc(N)n1,"inconclusive: 29.1 µM [activator, partial curve, poor fit]",–
Cc1cc(=O)[nH]c(-c2ccc(Cl)cc2)n1,"inconclusive: 11.6 µM [activator, single point]",–
Cc1nc(-c2ccc(Cl)cc2)oc1COC(C)(C)C(=O)O,inactive,–
Cc1ccc(C(NC(=O)NCCCN2CCOCC2)=C(Cl)Cl)cc1F,"inconclusive: 20 µM [activator, single point]",–
O=C(CN1CCN(Cc2cccc(C(F)(F)F)c2)CC1)NCC(=O)Nc1ccc(F)c(F)c1F,inactive,–
COc1ccc(OC)c(-c2cc(C(=O)Nc3ccc(F)cc3F)no2)c1,"inconclusive: 5.8 µM [activator, partial curve, poor fit]",–
COC(=O)C1=C(C)N(Cc2ccccc2)C(=NCc2ccccc2)N[C@H]1c1cccc(C(F)(F)F)c1,"inconclusive: 16.4 µM [activator, partial curve, poor fit]",–

# Going on with the list:

Structure (SMILES),Potency,re-replication activation
Cc1ccc(N2CCN(C(=O)CNS(=O)(=O)c3ccc(Br)s3)CC2C)cc1 (configuration not stated),inactive,–
O=C1CC(c2ccc(S(=O)(=O)N3CCN(c4ccccc4)CC3)cc2)CN1 (configuration not stated),"inconclusive: 29.1 µM [activator, single point]",–
CC1C/C(=C/c2cccs2)C(=O)/C(=C/c2cccs2)C1 (configuration not stated),"inconclusive: 11.6 µM [activator, partial curve, poor fit]",–
COc1ccc(CNC(=S)N2CCN(Cc3ccccc3)CC2)cc1,"inconclusive: 16.4 µM [activator, single point]",–
COc1ccc(C(=O)C2CCCN(C(=O)C3CCOCC3)C2)c(C)c1 (configuration not stated),inactive,–
COCCCNC(=O)c1ccc2c(c1)nc(C)n2-c1cccc(C)c1,"inconclusive: 6.51 µM [activator, partial curve, poor fit]",–
CCOc1cc2[nH]c(=S)n(Cc3ccc(C(=O)NCCCN(CC)CC)cc3)c(=O)c2cc1OCC,"inconclusive: 29.1 µM [activator, single point]",–
CC(NC(=O)c1ccc(-c2ccccc2)cc1)C(c1ccccc1)N1CCOCC1 (configuration not stated),"inconclusive: 20.6 µM [activator, single point]",–
Cc1ccc(/C=C/C(=O)N2CCC(Cc3ccccc3)CC2)cc1,inactive,–
COc1ccc(-c2cc(NCCc3ccncc3)n3ncnc3n2)cc1,–,inactive: 4.23% [at 9.22 µM]
COc1cccc(OCC(=O)Nc2ccc(OC)c(OC)c2)c1,inactive,–
CCOC(=O)c1c(CN(C)C)n(-c2ccccc2)c2cc(Br)c(OC)cc12,"inconclusive: 18.4 µM [activator, partial curve, poor fit]",–
c1ccc(Nc2nc(N3CCCC3)nc(N3CCCC3)n2)cc1,"inconclusive: 23.1 µM [activator, single point]",–
Cc1ccccc1CNC(=O)CC1C(=O)NCCN1CC1CCCCC1 (configuration not stated),"inconclusive: 4.61 µM [activator, full curve, poor fit]",–
COc1ccc(C(C)=O)cc1COC(=O)CCNS(=O)(=O)c1ccc(C)cc1,"inconclusive: 29.1 µM [activator, partial curve, poor fit]",–
CC(NO)/C(=N\O)c1cccs1 (configuration not stated),"inconclusive: 6.51 µM [activator, single point]",–
CC(=O)n1cc(Nc2ccc([N+](=O)[O-])cc2)c2ccccc21,"inconclusive: 0.82 µM [activator, partial curve, poor fit]",–
Cc1ccc(C(O)P(=O)(OC(C)C)c2ccc(N(C)C)cc2)cc1 (configuration not stated),"inconclusive: 2.06 µM [activator, full curve, poor fit]",–
CCOc1ccc(OCC)c(NC(=O)CN2CCC(NC(=O)c3cccc(F)c3)CC2)c1,"inconclusive: 16.4 µM [activator, partial curve, poor fit]",–
CCOC(=O)c1c(C)[nH]c(C(=O)OCC(=O)N2CCN(S(=O)(=O)c3ccccc3)CC2)c1C,"inconclusive: 32.6 µM [activator, partial curve, poor fit]",–
CC(NCCS(=O)(=O)c1ccc(Cl)cc1)c1cccc(Cl)c1 (configuration not stated),inactive,–
